Columns and labels:
[1] = Perturbation of the absorption spectrum of pyrroloquinoline quinone; settings: for perturbation of the PQQ spectrum by monoamines: 5 mM, corresponding conditions; for perturbation of the PQQ spectrum: aerobic; for perturbation of the PQQ spectrum under anaerobic conditions: anaerobic / nitrogen-purged
[2] = Release of H2O2 on oxidation of cis-DACH by limiting PQQ; settings: for Ratio H2O2/Oxidant / H2O2 Released: 1 mM cis-DACH; for H2O2 Released: maximal release
[3] = Release of 3H+ from [1,2-3H]DACH by limiting PQQ; settings: for Ratio ^3 H^+/Oxidant / ^3 H^+ Released: 1 mM [^3 H]DACH; for ^3 H^+ Released: pH 8, 37°C, maximum level
[4] = PQQ as oxidant, mean of 4 amounts

SMILES: NC1CCCCC1 [cyclohexylamine, reference compound]
- perturbation of the PQQ spectrum by monoamines [1]: did not perturb

SMILES: N[C@@H]1CCCC[C@H]1N (relative stereo) [trans-DACH, 1,2-Diaminocyclohexane, reference compound]
- perturbation of the PQQ spectrum [1]: relatively little change

SMILES: NCCN [EDA, Ethylenediamine]
- perturbation of the PQQ spectrum [1]: same spectral changes in free PQQ as was true of cis-DACH
- perturbation of the PQQ spectrum under anaerobic conditions [1]: markedly reduced

SMILES: N[C@@H]1CCCC[C@@H]1N [cis-DACH, 1,2-Diaminocyclohexane]
- perturbation of the PQQ spectrum [1]: markedly perturbed
- perturbation of the PQQ spectrum under anaerobic conditions [1]: relatively small spectral changes
- Ratio H2O2/Oxidant ([2]; 13.2 nanomoles PQQ): 1.08
- H2O2 Released ([2]; 13.2 nanomoles PQQ): 14.2 nmol
- Ratio H2O2/Oxidant ([2]; 26.4 nanomoles PQQ): 0.93
- H2O2 Released ([2]; 26.4 nanomoles PQQ): 24.6 nmol
- Ratio H2O2/Oxidant ([2]; 52.8 nanomoles PQQ): 0.97
- H2O2 Released ([2]; 52.8 nanomoles PQQ): 51.2 nmol
- Ratio H2O2/Oxidant ([2]; 79.2 nanomoles PQQ): 0.95
- H2O2 Released ([2]; 79.2 nanomoles PQQ): 74.9 nmol
- Ratio H2O2/Oxidant, mean [2, 4]: 0.98 ± 0.07

SMILES: CCCCCCN [n-hexylamine, reference compound]
- perturbation of the PQQ spectrum by monoamines [1]: did not perturb

SMILES: [3H]C1(N)CCCCC1([3H])N (centres unmarked) [[1,2-^3 H]DACH, [1,2-^3 H]-1,2-diaminocyclohexane]
- Ratio ^3 H^+/Oxidant ([3]; 2.1 nanomoles PQQ): 2.43
- ^3 H^+ Released ([3]; 2.1 nanomoles PQQ): 5.1 Nanomoles
- Ratio ^3 H^+/Oxidant ([3]; 4.0 nanomoles PQQ): 2.30
- ^3 H^+ Released ([3]; 4.0 nanomoles PQQ): 9.0 Nanomoles
- Ratio ^3 H^+/Oxidant ([3]; 6.0 nanomoles PQQ): 2.17
- ^3 H^+ Released ([3]; 6.0 nanomoles PQQ): 13.0 Nanomoles
- Ratio ^3 H^+/Oxidant ([3]; 7.5 nanomoles PQQ): 2.29
- ^3 H^+ Released ([3]; 7.5 nanomoles PQQ): 17.2 Nanomoles
- Ratio ^3 H^+/Oxidant, mean [3, 4]: 2.3 ± 0.11
- ^3 H^+ released per mole of PQQ ([3]; limiting PQQ): 2.30 moles of ^3 H^+ released per mole of PQQ

Reference: patent publication US4997854A, “Anti-fibrotic agents and methods for inhibiting the activity of lysyl oxidase in-situ using adjacently positioned diamine analogue substrates” (Trustees of Boston University, priority 1989, dated 1991)
